Laboratory results from paper PMC6315435.
For some of these results: No signal at the amounts used counts as a negative. For some of these results: For at least one entry, the source does not settle the construct or the ends of the probe.

Sequences of proteins named here, by UniProt entry; tags and fusion partners are left off. Residues count along the entry.
UniProt P02769, 25-607: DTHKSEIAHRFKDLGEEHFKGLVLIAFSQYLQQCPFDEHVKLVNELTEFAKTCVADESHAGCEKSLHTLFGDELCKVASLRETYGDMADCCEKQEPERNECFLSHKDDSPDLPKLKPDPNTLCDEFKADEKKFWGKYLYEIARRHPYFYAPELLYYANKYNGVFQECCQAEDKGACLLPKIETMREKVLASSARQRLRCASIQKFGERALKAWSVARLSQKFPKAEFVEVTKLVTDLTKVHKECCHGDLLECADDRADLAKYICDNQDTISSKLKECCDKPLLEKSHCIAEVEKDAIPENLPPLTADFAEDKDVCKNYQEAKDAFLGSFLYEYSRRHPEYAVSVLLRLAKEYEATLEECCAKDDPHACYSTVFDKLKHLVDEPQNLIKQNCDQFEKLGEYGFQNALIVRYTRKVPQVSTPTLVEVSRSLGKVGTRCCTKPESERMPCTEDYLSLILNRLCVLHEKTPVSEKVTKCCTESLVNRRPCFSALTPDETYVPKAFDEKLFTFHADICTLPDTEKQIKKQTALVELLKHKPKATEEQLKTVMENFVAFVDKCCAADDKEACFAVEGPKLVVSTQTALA

What was measured:
Test in all cases: FRET dye-quencher strand displacement by competitor DNA
NF-kB p50 = settings: 50 nM p50, 20 nM dye, 60 nM quencher, 30 nM competitor strand, also p50 concentration series; 10 mM Tris-HCl, 50 mM NaCl, 3 mM MgCl2, 0.5 mM DTT (Figure 2 legend: 10 mM Tris-HCl, 150 mM NaCl, 2 mM MgCl2); recombinant protein; label: 5' 6-FAM on strand 1, 3' Iowa Black FQ on strand 2
NF-kB p50 + NF-kB p65 = settings: 25 nM p50 + 25 nM p65 heterodimer, 20 nM dye, 60 nM quencher, 30 nM competitor strand; 10 mM Tris-HCl, 50 mM NaCl, 3 mM MgCl2, 0.5 mM DTT (Figure 2 legend: 10 mM Tris-HCl, 150 mM NaCl, 2 mM MgCl2); recombinant protein; label: 5' 6-FAM on strand 1, 3' Iowa Black FQ on strand 2
NF-kB p65 = settings: 50 nM p65, 20 nM dye, 60 nM quencher, 30 nM competitor strand; 10 mM Tris-HCl, 50 mM NaCl, 3 mM MgCl2, 0.5 mM DTT (Figure 2 legend: 10 mM Tris-HCl, 150 mM NaCl, 2 mM MgCl2); recombinant protein; label: 5' 6-FAM on strand 1, 3' Iowa Black FQ on strand 2
BSA (bovine) = BSA (bovine) (UniProt P02769); settings: 5000 nM BSA, 20 nM dye, 60 nM quencher, 30 nM competitor strand; 10 mM Tris-HCl, 50 mM NaCl, 3 mM MgCl2, 0.5 mM DTT (Figure 2 legend: 10 mM Tris-HCl, 150 mM NaCl, 2 mM MgCl2); commercial protein; label: 5' 6-FAM on strand 1, 3' Iowa Black FQ on strand 2

Question: Does “TTGGGACTTTCCCAAGATAGTAAG / CTTGGGAAAGTCCCAA [Ig-kB dye-quencher probe]” bind (NF-kB p50)?
Answer: binds

Question: Does “TTGGGACTTTCCCAAGATAGTAAG / CTTGGGAAAGTCCCAA [Ig-kB dye-quencher probe]” bind (NF-kB p50 + NF-kB p65)?
Answer: binds

Question: Does “TTGGGACTTTCCCAAGATAGTAAG / CTTGGGAAAGTCCCAA [Ig-kB dye-quencher probe]” bind (NF-kB p65)?
Answer: binds

Question: Does “TTGGGACTTTCCCAAGATAGTAAG / CTTGGGAAAGTCCCAA [Ig-kB dye-quencher probe]” bind (BSA (bovine))?
Answer: no binding
